Results published in PMC7864943.

Columns and labels:
human p23 (human) [1] = biological target: T1, human p23 (human) (UniProt Q15185); experiment: NMR titration; 1H-15N HSQC of 15N-labeled p23 with full-length Hsp90/AMP-PNP and GR-LBDm together (ternary complex); peak intensity ratios; both purified
T1 sequence: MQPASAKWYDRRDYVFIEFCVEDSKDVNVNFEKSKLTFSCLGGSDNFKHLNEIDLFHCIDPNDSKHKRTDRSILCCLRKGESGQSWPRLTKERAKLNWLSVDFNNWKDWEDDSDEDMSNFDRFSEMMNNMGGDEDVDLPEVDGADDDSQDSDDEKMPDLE

[2] = biological target: T2, yeast p23 (Sba1) wild type (yeast) (UniProt P28707); experiment: as above
T2 sequence: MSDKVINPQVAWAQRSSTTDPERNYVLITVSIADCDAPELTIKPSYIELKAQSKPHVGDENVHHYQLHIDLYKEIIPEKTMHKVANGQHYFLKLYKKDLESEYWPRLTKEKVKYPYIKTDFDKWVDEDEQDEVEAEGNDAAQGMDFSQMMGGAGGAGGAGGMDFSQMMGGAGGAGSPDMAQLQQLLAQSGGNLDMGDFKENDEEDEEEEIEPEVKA

human p23 (human) [3] = biological target: T1, human p23 (human); experiment: NMR titration; 1H-15N HSQC of 15N-labeled p23 with unlabeled full-length Hsp90/AMP-PNP or GR-LBDm alone; peak intensity ratios; 25 mM Tris, 200 mM NaCl, 5 mM DTT, 0.5 mM dexamethasone, pH 7; 30 °C; both purified
[4] = biological target: T2, yeast p23 (Sba1) wild type (yeast); experiment: as above

Measured: binding

glucocorticoid receptor ligand binding domain (GR-LBDm) (domain or fragment)
binds: all assays above

Results are given in words; binding and its absence hold for the method and conditions named. Binding calls can cover weak binding; strength is not graded here.
